The results in this text go back to article PMC6885686.

Among the targets are GFP-TDP-43 D169G (UniProt Q13148); GFP-TDP-43 K181A (UniProt Q13148); GFP-TDP-43 K181E (UniProt Q13148); GFP-TDP-43 K263E (UniProt Q13148); GFP-TDP-43 M337V (UniProt Q13148); GFP-TDP-43 Q331K (UniProt Q13148); GFP-TDP-43 WT (UniProt Q13148).
Test in all cases: EMSA
Common to all, as to conditions: EMSA: 5 ug total lysate in RIPA with RNase inhibitor, 2 ug tRNA, 1 uM unlabelled (GU)x6 and […] biotin-(GU)x6, 30 min room temperature, 6% native PAGE; protein in a lysate after overexpression; residues 1-414; protein details: N-terminal GFP (pEGFP-C1)

Where cells or extracts were used, other partners may take part. For some of these results: No signal at the amounts used counts as a negative. For some of these results: The exact form of at least one protein or probe is not confirmed.

Regarding CGUGUGUGUGUGUGGU [(GU)x6 RNA], the binding result is listed as “binds” with GFP-TDP-43 D169G; “binds” in the data set with GFP-TDP-43 K181A; “no binding” with GFP-TDP-43 K181E; “no binding” with GFP-TDP-43 K263E; “binds” with GFP-TDP-43 M337V; “binds” in the data set with GFP-TDP-43 Q331K. The binding result with GFP-TDP-43 WT is “binds”.
